Test results taken from PMC7862700.
Only a part is listed here, and it is no random draw. At the low end of the ranking, values are background and their order means little.

Tests used:
Assay in all cases: DAPPL (digital affinity profiling via proximity ligation, sequencing)
Details in all cases: 10 mM Tris-HCl pH 7.5, 50 mM NaCl, 1 mM DTT, 4% glycerol, room temperature, 30 min; GST-TFs on glutathione beads, 16-mer random dsDNA library, 0.1% …; high values mean tight binding; double strand, one strand shown; scale: fold enrichment (6-mer frequency, TF over GST control)
[1] = target: T1, ELK1 (UniProt P19419)
T1 sequence: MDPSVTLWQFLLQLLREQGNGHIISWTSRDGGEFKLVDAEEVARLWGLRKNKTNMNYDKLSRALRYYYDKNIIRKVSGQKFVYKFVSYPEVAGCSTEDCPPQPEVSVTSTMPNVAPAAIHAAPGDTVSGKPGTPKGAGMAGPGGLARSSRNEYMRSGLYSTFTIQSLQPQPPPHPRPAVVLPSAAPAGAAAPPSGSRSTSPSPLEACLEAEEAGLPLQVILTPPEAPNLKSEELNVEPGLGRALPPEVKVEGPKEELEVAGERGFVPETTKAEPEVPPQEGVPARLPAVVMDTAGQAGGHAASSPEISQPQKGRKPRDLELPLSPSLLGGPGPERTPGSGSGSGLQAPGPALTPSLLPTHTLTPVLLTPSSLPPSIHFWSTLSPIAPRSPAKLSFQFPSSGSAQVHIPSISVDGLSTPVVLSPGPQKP

[2] = target: T2, ETS2 (UniProt P15036)
T2 sequence: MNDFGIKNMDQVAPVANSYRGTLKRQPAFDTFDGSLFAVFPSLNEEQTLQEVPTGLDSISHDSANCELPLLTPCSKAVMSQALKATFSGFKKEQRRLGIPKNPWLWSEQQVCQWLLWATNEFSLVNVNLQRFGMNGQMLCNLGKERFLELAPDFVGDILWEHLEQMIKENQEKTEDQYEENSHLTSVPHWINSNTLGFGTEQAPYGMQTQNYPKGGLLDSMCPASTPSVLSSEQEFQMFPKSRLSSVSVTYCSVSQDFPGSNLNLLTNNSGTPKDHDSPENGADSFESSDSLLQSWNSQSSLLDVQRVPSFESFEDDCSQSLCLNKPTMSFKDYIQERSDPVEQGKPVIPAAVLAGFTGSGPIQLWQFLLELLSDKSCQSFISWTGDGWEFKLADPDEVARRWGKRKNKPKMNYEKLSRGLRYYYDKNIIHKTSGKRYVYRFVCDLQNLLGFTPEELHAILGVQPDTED

[3] = target: T3, ELK3 (UniProt P41970)
T3 sequence: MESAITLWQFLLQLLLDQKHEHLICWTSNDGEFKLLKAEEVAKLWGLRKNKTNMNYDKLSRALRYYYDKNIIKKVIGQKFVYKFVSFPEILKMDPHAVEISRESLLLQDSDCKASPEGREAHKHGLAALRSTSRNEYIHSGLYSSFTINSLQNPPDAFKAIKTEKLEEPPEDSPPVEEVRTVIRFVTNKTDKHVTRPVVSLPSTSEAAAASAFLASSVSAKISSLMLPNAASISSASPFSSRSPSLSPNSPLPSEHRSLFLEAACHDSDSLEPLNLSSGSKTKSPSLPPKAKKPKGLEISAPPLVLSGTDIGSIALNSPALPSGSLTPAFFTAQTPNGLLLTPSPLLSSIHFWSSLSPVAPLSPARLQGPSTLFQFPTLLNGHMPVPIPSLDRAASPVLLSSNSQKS

[4] = target: T4, ETV3 (UniProt P41162-2)
T4 sequence: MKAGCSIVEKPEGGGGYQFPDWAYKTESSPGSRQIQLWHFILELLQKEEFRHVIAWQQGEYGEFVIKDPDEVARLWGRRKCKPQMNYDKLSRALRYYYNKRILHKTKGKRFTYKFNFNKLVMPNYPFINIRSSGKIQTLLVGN

Sequence	binding signal [1]	binding signal [2]	binding signal [3]	binding signal [4]
TTGGCT	1.07	0.949		
CACGTA	1.18	1.14		
GTATCC	1.9	1.84		
ACCGCT	1.12	1.1		
ACTCGG	0.848	0.989		
AGTCCC	1.06	0.965		
GTTCAA	1.18	1.14		
CTGCTT	1.57	1.63		
ACTGGA	0.961	0.999		
CCAAAC	1.13	1.1		
GCAACT	1.19	1.16		
TGATTG	1.16	1.01		
CCACTG	1.11	1.16		
CTTAAG	1.11	0.978		
ATTATA	1.32	1.37		
TACCAT	1.09	1.22		
CTACGG	1.27	1.16		
CTGCTG	1.26	1.36		
TCCGTA	1.63	1.57		

Already shown: entries from further up.
Sequence	binding signal [1]	binding signal [2]	binding signal [3]	binding signal [4]
AGTCCC	1.06	0.965		
GTTCAA	1.18	1.14		
CTGCTT	1.57	1.63		

The list continues.

Sequence	binding signal [1]	binding signal [2]	binding signal [3]	binding signal [4]
TCGCTG	0.998	1.12		
AAGGCT	0.991	0.973		
AATATG	1.13	1.15		
CGCCAC	0.969	0.899		
TCCGAA	1.28	1.23		
CCCATA	1.26	1.29		
TTAATA	1.23	1.21		
TAATCA	1.14	1.14		
TATATC	1.62	1.64		
TGGCGT	0.906	0.913	0.942	0.92
ACGAGC	0.993	0.937		0.985
TGGTTG	1.02	1.08		0.973
GGTCCA	0.888	0.957	0.873	0.909
GTACAG	0.999	0.969	0.854	0.961
GCAGAT	0.946	0.899	0.892	0.944
GTGGTT	0.909	0.9		0.868
ACCCAT	1.21	1.37		1.25
TATGGG	1.06	1.15	1.18	1.17
